Some of the results follow. Shown are side measurements of this screen, not its main read-out; they come without a call. Most of these compounds were active or inconclusive in the main read-out, so they are no random draw. Words in brackets tell the shape of the fitted curve; partial curves, single points and poor fits give uncertain potencies.
Assay: qHTS Assay to Find Inhibitors of Chronic Active B-Cell Receptor Signaling
Settings: ABC-DLBCL IkBa-CBG/CBR reporter, luminescence ratio (green luciferase fused to IkBa over red control in TMD8 lymphoma cells), 4 h
In short: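 TMD8 ABC-DLBCL cells carrying doxycycline-inducible green luciferase fused to IkappaBalpha plus unfused red luciferase were exposed to compounds (up to 46 uM) for 4 hrs at 37C. Activity came from the overlap-corrected green/red luminescence ratio.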

[1] = measured here: CBR red luminescence, cell number
[2] = measured here: IkBa-CBG green luminescence

Row | Structure (SMILES) | AC50 [1] | AC50 [2]
1 | CCNc1nc(NCC)nc(OCCOC(=O)c2ccccc2)n1 | 3.98 µM [rising, single point] | –
2 | CC(C)CCSc1ncnc2c1oc1nc3c(cc12)COC(C)(C)C3 | 4.61 µM [rising, full curve, poor fit] | –
3 | Cc1cc(-n2cnc(-c3cn[nH]c3C)n2)no1 | 2.24 µM [falling, full curve, poor fit] | –
4 | O=C(CCNc1cccc(F)c1)c1cccc([N+](=O)[O-])c1 | 35.5 µM [falling, single point] | –
5 | Cc1ccc2c(c1)/C(=N/N1C(=O)c3ccccc3C1=O)C(=O)N2 | 6.51 µM [rising, single point] | –
6 | CCCC1=C(C(=O)OCC)C(c2cccs2)n2ncnc2N1 (stereo unspecified) | – | 7.94 µM [rising, partial curve, poor fit]
7 | CCC1CCCCN1C(=O)CSc1nnc(-c2ccc(Cl)cc2)o1 (stereo unspecified) | 5.17 µM [rising, full curve, poor fit] | –
8 | O=C(Nc1ccncc1)Nc1cc(Cl)ccc1Cl | 1.26 µM [rising, full curve, poor fit] | –
9 | CCc1nn(CCCN2CCN(c3cccc(Cl)c3)CC2)c(=O)n1CCOc1ccccc1 | 35.5 µM [falling, single point] | –
10 | CC(Oc1ccccc1F)C(=O)Nc1ccc2ccccc2c1 (stereo unspecified) | 4.61 µM [rising, partial curve, poor fit] | –
11 | Cc1csc(=Nc2ccc(S(=O)(=O)N3CCOCC3)cc2)n1Cc1ccco1 | 5.01 µM [rising, partial curve] | –
12 | COc1cccc(NC(=O)c2ccccc2-c2nc(-c3ccc(F)cc3)no2)c1 | 20.6 µM [falling, partial curve, poor fit] | –
13 | Cc1ccc2nc(-c3ccc(SCC(=O)N4CCc5ccccc54)nc3)[nH]c2c1 | – | 5.8 µM [rising, partial curve, poor fit]
14 | COc1ccc(Cl)cc1S(=O)(=O)N1CCC(C(=O)NCCC2=CCCCC2)CC1 | 12.6 µM [falling, partial curve, poor fit] | –
15 | CCn1c(SCC(=O)c2ccc(C)cc2)nnc1-c1ccoc1C | 18.4 µM [falling, single point] | –
16 | CNc1nc(N/N=C/c2cc3c(cc2[N+](=O)[O-])OCO3)nc(Nc2ccccc2)n1 | 14.1 µM [falling, single point] | 25.1 µM [rising, partial curve, poor fit]
17 | COc1ccc(-c2nnc(SCC(=O)N3CCCCC3)o2)cc1 | 0.112 µM [rising, full curve, poor fit] | –
18 | COc1ccc(-c2nn(-c3ccccc3)cc2C(=O)N2CCN(S(=O)(=O)c3ccccc3C#N)CC2)cc1 | 6.51 µM [rising, partial curve, poor fit] | –
19 | COc1ccc(N(CC(=O)Nc2ccccc2C(F)(F)F)C2=NC3CS(=O)(=O)CC3S2)cc1 (stereo unspecified) | 10 µM [falling, partial curve] | –
20 | CCN1CCC(NC(=O)Nc2ccc(F)cc2F)CC1 | 3.98 µM [falling, partial curve, poor fit] | –
21 | CCCCn1c(CCc2ccccc2)nc2cc3[nH]c(=O)c(C(C)C)nc3cc21 | 15.8 µM [falling, partial curve, poor fit] | –

Single entries from the results shown.
AC50 [1], `CCc1nn(CCCN2CCN(c3cccc(Cl)c3)CC2)c(=O)n1CCOc1ccccc1` reads 35.5 µM [falling, single point]
AC50 [2], `CNc1nc(N/N=C/c2cc3c(cc2[N+](=O)[O-])OCO3)nc(Nc2ccccc2)n1` reads 25.1 µM [rising, partial curve, poor fit]
AC50 [2], `Cc1ccc2nc(-c3ccc(SCC(=O)N4CCc5ccccc54)nc3)[nH]c2c1` reads 5.8 µM [rising, partial curve, poor fit]

Later entries.

Row | Structure (SMILES) | AC50 [1] | AC50 [2]
22 | COc1ccc(NC(=O)CN(C)C(=O)c2ccc(NS(=O)(=O)c3ccc(F)cc3)cc2)cc1 | 29.1 µM [rising, single point] | –
23 | Oc1ccc(O)c(Cc2nc3ccccc3s2)c1 | 12.6 µM [falling, partial curve] | –
24 | C=C1C(=O)O[C@@H]2[C@H]1CC[C@H](C)[C@]1(O)CCC(=O)[C@@]21C | 11.2 µM [falling, partial curve, poor fit] | –
25 | Cc1cccc(C)c1NC(=O)C1CCCN(CCCc2ccccc2)C1 (stereo unspecified) | 6.51 µM [falling, single point] | –
26 | O=C(NCCc1cn2ccccc2n1)c1cc(COc2ccc3ncccc3c2)on1 | 35.5 µM [falling, single point] | –
27 | Cc1cc(/C=C2\SC(=O)N(C)C2=O)c(C)n1-c1cccc(C(=O)O)c1 | 35.5 µM [falling, single point] | –
28 | CCOc1cccc(C(=O)Nc2ccc(N3CCCC3)cc2)c1 | 11.2 µM [falling, partial curve] | –
29 | CCOC(=O)C1CCN(CC(=O)c2c(C)[nH]c3cc(C)ccc23)CC1 | 35.5 µM [falling, single point] | –
30 | O=C(Nc1ccc2nc(-c3ccc(Br)o3)[nH]c2c1)c1ccco1 | 12.6 µM [falling, partial curve, poor fit] | –
31 | COc1ccccc1[C@H]1C(c2ccccc2)=NN(c2ccccc2)[C@@H]1CO | 29.1 µM [falling, single point] | –
32 | O=C(Cn1nnc2ccccc21)N/N=C\C=C\c1ccccc1 | 15.8 µM [rising, partial curve] | –
33 | CC(C)c1cccc(C2=CC(=O)C[C@H](c3ccc4c(c3)OCO4)C2)c1 | 13 µM [rising, partial curve, poor fit] | –
34 | Cc1c(C)n(CCc2ccccc2)c2ncnc(NCCCN(C)C)c12 | 35.5 µM [falling, partial curve, poor fit] | –
35 | COc1ccc(-c2[nH]ncc2/C=C(/C#N)C(=O)NC2CCCCC2)cc1 | 1.84 µM [rising, partial curve] | –
36 | O=C(NC(=S)Nc1cccc(F)c1)c1cccc([N+](=O)[O-])c1 | 12.6 µM [falling, partial curve] | 17.8 µM [falling, partial curve, poor fit]
37 | COc1cccc(C(=O)OCC(=O)N2CCc3ccccc3C2)c1 | 18.4 µM [falling, partial curve, poor fit] | –
38 | O=C(Cc1c(Cl)cccc1Cl)OCc1ccccn1 | 15.8 µM [rising, single point] | –
39 | CC(C)c1cccc(C(C)C)c1NC(=O)CNCc1ccccc1F | 18.4 µM [falling, partial curve, poor fit] | –
40 | COc1cc(/C=C2\SC(=O)N(c3ccccc3Cl)C2=O)cc([N+](=O)[O-])c1O | 35.5 µM [falling, single point] | –
41 | O=C(CN1C(=O)NC2(CCCC2)C1=O)N1CCN(S(=O)(=O)c2ccccc2Br)CC1 | 35.5 µM [falling, partial curve, poor fit] | –
42 | Cc1nn(-c2ccccc2)cc1/C=N/NS(=O)(=O)c1ccccc1 | 6.51 µM [falling, single point] | –

Row | Structure (SMILES) | AC50 [1] | AC50 [2]
43 | CCCC1=C(C(=O)OCC)C(c2ccccc2OCC)NC(=O)N1C (stereo unspecified) | 15.8 µM [falling, partial curve, poor fit] | –
44 | COc1cccc(-n2cc(CN(C)Cc3nc(Cc4cccc(F)c4)no3)cn2)c1 | 3.55 µM [rising, partial curve, poor fit] | –
45 | COc1ccc(C)cc1NC(=O)COC(=O)c1c(C)nn(-c2ccccc2)c1C | 29.1 µM [falling, single point] | –
46 | CCOC(=O)c1c(S(=O)(=O)Nc2ccc(CN3CCC(C)CC3)cc2)c(C)n(C)c1C | 0.794 µM [rising, full curve, poor fit] | –
47 | COc1cccc(OC)c1NC(=O)CN1CCC(NC(=O)c2cccc(F)c2)CC1 | 11.6 µM [rising, partial curve, poor fit] | –
48 | COCCN1CN(S(=O)(=O)c2ccc(Cl)cc2)c2nc3ccccc3nc21 | 35.5 µM [falling, single point] | –
49 | Cc1ccc(CCC(=O)Nc2ncc(Cc3cccc(Cl)c3Cl)s2)o1 | 0.731 µM [rising, full curve] | 0.517 µM [falling, full curve]
50 | N#C/C(=C/c1cn(CC(=O)O)c2ccccc12)C(=O)Nc1ccccc1 | 11.2 µM [falling, single point] | –
51 | CC(=O)c1ccc2c3c(cccc13)CC2 | 29.1 µM [rising, single point] | –
52 | CN1CCC(=NNC(=O)c2cc(-c3ccc(Cl)cc3)n[nH]2)CC1 | 11.2 µM [rising, partial curve, poor fit] | 12.6 µM [falling, single point]
53 | O=C1Nc2cc(Cl)c(Cl)cc2N(O)N1c1ccc(Cl)cc1 | 15.8 µM [falling, partial curve, poor fit] | –
54 | O=C(O)CSc1nc2ccccc2c(=O)[nH]1 | 11.6 µM [falling, partial curve, poor fit] | –
55 | CC(=O)NS(=O)(=O)c1ccc(NC(=O)/C=C/c2ccccc2)cc1 | 20 µM [falling, single point] | –
56 | Cc1cc(C(=O)CSc2cccc[n+]2[O-])c(C)n1-c1ccccc1 | 35.5 µM [falling, single point] | 28.2 µM [falling, single point]
57 | CCOc1ncccc1C(=O)OCC(=O)c1ccc(C)c(C)c1 | 12.6 µM [falling, partial curve, poor fit] | –
58 | O=c1c2c(nc3nc(CCc4ccccc4)[nH]n13)CCC2 | 0.461 µM [falling, full curve] | –
59 | CCOC(=O)C1CCN(c2c([N+](=O)[O-])c(C(Cl)Cl)nn2-c2ccccc2)CC1 | 7.31 µM [rising, partial curve, poor fit] | –
60 | O=C1c2ccccc2NC(c2ccc(O)cc2)N1/N=C/c1ccc(O)cc1 (stereo unspecified) | 20.6 µM [falling, partial curve] | –
61 | CC1(C)CC2(CCO1)OC(=O)CC2C(=O)Nc1ccc(Cl)cc1[N+](=O)[O-] (stereo unspecified) | 0.316 µM [rising, full curve, poor fit] | –
